Laboratory results published in patent US20100184113A1, “CONTROLLING OSTEOGENESIS BY INHIBITION OF OSTEOGENIC SUPPRESSORS” (The Scripps Research Institute Office of Patent Counsel, priority 2006, published 2010).
At least one compound was matched to its structure with a doubt left.

Tested on: hMSCs
Test: Compound treatment on OS-induced osteogenic differentiation of hMSCs (ALP / alizarin red staining)
Format: cell-based, human
Conditions: compound plus OS media
Method: 8-CPT-cAMP, Na (cat# 116812), 5-Iodotubercidin (cat# 407900), Prostaglandin E2 (PGE2, cat# 538904), SB 202190 (cat# 559388) and U0126 (cat# 662005) were purchased from Calbiochem; N6,2′-O-Dibutyryl-cAMP (cat# D0260-5MG), forskolin (cat# F6886), ascorbic acid 2-phosphate (cat# 49752-10G), (3-glycerophosphate (G-6251), dexamethasone (D8893), 3-isobutyl-1-methylxanthine (IBMX, 15879) and Insulin (19278) were purchased from Sigma/Aldrich/Fluka.
Since the targeted genes are all positively involved in intracellular cAMP signaling, we tested the effect of two compounds of opposing function on cAMP production on osteogenic differentiation of hMSCs, ADK inhibitor 5-iodotubercidin and ADCY activator forskolin (Cottam, H. B. et al., J Med Chem 36:3424-3430 (1993); de Souza, N. J. et al., Med Res Rev 3:201-219 (1983)). […] ATP has been shown as a ligand for P2RY11 receptor (Communi et al., 1997). […] The present observations are consistent with the conclusion that […] in hMSCs, and vice versa.

## C=C[C@@]1(C)CC(=O)[C@]2(O)[C@@]3(C)[C@@H](O)CCC(C)(C)[C@@H]3[C@H](O)[C@H](OC(C)=O)[C@@]2(C)O1 [forskolin]
  osteogenic differentiation of hMSCs combined with OS treatment: inhibited this process
